PubChem BioAssay AID1224830, NIAID, 2016
Test: 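Regulators of TLR4 signalling towards TNF-alpha in macrophage-like cells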 (primary screen). Cells: human THP-1 monocytic leukaemia cells, TNF dual-luciferase reporter clone, PMA-differentiated to macrophage-like cells. Knock-down reagent: siRNA pool against human genes, 50 nM. Time to read-out: LPS for 4 h, given about 3 days after siRNA transfection. Conditions: bacterial LPS (TLR4 ligand), 10 ng/ml. Measurement: 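Ratio of firefly to renilla light, scaled to the plate median and expressed as a robust z-score per replicate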. Reading the numbers: TNF reporter robust z-score: higher = stronger TNF reporter response to LPS. Hit rule: 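Each well counts as active if its z-score is over 2.8 or under -1.5; controls are left without a call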.
In all, the deposit lists about 18,000 reagents; this is an unselected part. In the full data, about 2,900 (16%) were called active. 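Calls are made per well; low scores hint the gene aids the LPS response, high scores that it dampens it.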 Repeated entries: four replicate wells of each siRNA pool.

The opening 2 records, ahead of the listing:
MLF2
- TNF reporter robust z-score: -0.27
- Outcome: inactive

MLF2
- TNF reporter robust z-score: 0.02
- Outcome: inactive

Main list, from the start:
MLF2
- TNF reporter robust z-score: -0.27
- Outcome: inactive

MLF2
- TNF reporter robust z-score: 0.02
- Outcome: inactive

MLF2
- TNF reporter robust z-score: 0
- Outcome: inactive

GAGE12I
- TNF reporter robust z-score: 0.73
- Outcome: inactive

GAGE12I
- TNF reporter robust z-score: 2.09
- Outcome: inactive

GAGE12I
- TNF reporter robust z-score: 2
- Outcome: inactive

GAGE12I
- TNF reporter robust z-score: 1.06
- Outcome: inactive

CACNG8
- TNF reporter robust z-score: 0.22
- Outcome: inactive

CACNG8
- TNF reporter robust z-score: 0.21
- Outcome: inactive

CACNG8
- TNF reporter robust z-score: -0.88
- Outcome: inactive

CACNG8
- TNF reporter robust z-score: 0.16
- Outcome: inactive

ZCCHC10
- TNF reporter robust z-score: -0.17
- Outcome: inactive

ZCCHC10
- TNF reporter robust z-score: 0.13
- Outcome: inactive

ZCCHC10
- TNF reporter robust z-score: -0.92
- Outcome: inactive

ZCCHC10
- TNF reporter robust z-score: -0.07
- Outcome: inactive

RTL3
- TNF reporter robust z-score: -0.18
- Outcome: inactive

RTL3
- TNF reporter robust z-score: 0
- Outcome: inactive

RTL3
- TNF reporter robust z-score: 0.45
- Outcome: inactive

RTL3
- TNF reporter robust z-score: 1.35
- Outcome: inactive
